Earlier results in patent US11646117B2, “Matrix factorization of antibiogram metadata” (priority 2019, dated 2023).
For at least one compound, name, drawing or mass did not settle the structure.

System: Klebsiella pneumoniae (biosample SAMN07265011, strain DHQP1605752_NV)
Settings: for Measurement (MIC): laboratory typing method MIC, CLSI; for Resistance phenotype: testing standard CLSI

## CN(C)[C@@H]1C(O)=C(C(N)=O)C(=O)[C@@]2(O)C(O)=C3C(=O)c4c(O)cccc4[C@@](C)(O)[C@H]3C[C@@H]12 [tetracycline]
  Measurement (MIC): > 32 µg/mL
  Resistance phenotype: resistant

## C[C@H]1COc2c(N3CCN(C)CC3)c(F)cc3c(=O)c(C(=O)O)cn1c23 [levofloxacin]
  Measurement (MIC): > 8 µg/mL
  Resistance phenotype: resistant

## C[C@@H](O)[C@H]1C(=O)N2C(C(=O)O)=C(SCCN=CN)C[C@H]12 [imipenem]
  Measurement (MIC): 32 µg/mL
  Resistance phenotype: resistant
